Experimental data taken from paper PMC3885392.
No constants are given. Whether binding was seen depends on the method and setting. For some of these results: In cells and extracts the contact can be indirect. Some entries that bind do so weakly or less than the wild type. For some of these results: Tags and fused reporters may be left off the sequences shown.

Sequences of proteins named here, by UniProt entry; tags and fusion partners are left off.
UniProt P31751: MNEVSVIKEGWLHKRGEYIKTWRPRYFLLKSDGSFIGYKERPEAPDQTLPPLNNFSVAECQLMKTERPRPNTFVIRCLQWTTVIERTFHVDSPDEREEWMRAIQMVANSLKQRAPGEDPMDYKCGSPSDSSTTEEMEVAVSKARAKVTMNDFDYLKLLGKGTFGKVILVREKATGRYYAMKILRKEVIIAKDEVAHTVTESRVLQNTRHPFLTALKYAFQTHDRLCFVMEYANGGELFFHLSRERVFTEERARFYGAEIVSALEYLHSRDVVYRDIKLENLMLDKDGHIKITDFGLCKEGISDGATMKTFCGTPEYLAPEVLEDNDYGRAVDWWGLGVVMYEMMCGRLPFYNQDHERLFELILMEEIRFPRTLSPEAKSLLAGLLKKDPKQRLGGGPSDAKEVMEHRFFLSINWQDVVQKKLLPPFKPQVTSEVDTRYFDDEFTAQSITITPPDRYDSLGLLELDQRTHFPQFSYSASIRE
UniProt P31749: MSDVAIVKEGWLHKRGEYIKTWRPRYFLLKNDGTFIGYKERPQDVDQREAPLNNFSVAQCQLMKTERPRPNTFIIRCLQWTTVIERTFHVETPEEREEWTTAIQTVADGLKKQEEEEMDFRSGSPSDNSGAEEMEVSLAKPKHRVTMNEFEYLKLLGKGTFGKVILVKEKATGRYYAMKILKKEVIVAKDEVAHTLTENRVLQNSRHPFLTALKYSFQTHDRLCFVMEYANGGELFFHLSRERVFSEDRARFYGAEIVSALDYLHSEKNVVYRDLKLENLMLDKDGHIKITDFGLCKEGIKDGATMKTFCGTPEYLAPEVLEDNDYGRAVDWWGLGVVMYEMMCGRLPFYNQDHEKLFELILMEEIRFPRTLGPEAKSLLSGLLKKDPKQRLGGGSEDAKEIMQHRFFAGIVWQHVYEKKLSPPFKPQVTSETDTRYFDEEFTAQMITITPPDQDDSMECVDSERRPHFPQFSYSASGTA
UniProt Q9Y243: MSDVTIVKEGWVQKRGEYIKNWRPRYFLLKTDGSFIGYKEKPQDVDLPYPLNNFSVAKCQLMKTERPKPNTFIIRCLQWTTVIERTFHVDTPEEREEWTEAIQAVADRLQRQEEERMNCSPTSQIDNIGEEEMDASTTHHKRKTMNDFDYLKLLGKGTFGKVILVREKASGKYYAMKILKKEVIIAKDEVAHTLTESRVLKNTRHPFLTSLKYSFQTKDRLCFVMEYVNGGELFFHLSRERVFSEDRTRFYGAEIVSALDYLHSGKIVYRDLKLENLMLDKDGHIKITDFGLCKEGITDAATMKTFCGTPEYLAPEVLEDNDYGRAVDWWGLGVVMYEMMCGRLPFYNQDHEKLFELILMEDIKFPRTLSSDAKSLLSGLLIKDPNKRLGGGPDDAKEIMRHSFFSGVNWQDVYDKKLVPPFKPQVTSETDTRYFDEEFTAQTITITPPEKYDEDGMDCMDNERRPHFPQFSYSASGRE

Legend:
[1] = target: T1, N-terminal Venus fused Phafin2 (pCAGGS-VN-Phafin2) (human) (UniProt Q9H8W4); assay: split reporter; BiFC in HeLa cells transfected with pCAGGS-VN-Phafin2 and pCAGGS-VC-Akt2; normal condition, rapamycin or HBSS; fixed, confocal microscopy
T1 sequence: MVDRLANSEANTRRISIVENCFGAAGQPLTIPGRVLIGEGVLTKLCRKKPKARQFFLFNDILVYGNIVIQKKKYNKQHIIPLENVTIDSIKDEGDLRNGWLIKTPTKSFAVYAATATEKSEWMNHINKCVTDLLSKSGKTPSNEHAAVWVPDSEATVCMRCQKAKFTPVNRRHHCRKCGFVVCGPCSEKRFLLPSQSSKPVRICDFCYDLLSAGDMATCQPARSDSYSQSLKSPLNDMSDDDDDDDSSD

[2] = target: T2, Flag-tagged Phafin2 (human) (UniProt Q9H8W4); assay: co-IP; 293T cells co-transfected with the indicated plasmids, 72 h, Brij97 lysis buffer, immunoprecipitated with anti-HA or anti-Flag antibody with mouse IgG as a control, immunoblot
T2 sequence: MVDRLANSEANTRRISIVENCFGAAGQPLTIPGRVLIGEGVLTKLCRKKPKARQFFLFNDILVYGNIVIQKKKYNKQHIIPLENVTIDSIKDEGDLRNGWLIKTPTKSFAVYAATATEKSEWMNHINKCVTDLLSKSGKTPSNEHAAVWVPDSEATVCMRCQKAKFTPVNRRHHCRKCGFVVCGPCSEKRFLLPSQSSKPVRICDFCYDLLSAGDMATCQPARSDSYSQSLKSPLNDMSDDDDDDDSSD

[3] = target: T3, Endogenous Phafin2 (HT1080 cells) (human (endogenous in HT1080)) (UniProt Q9H8W4); assay: co-IP; endogenous proteins in HT1080 cells, co-immunoprecipitation and immunoblot
T3 sequence: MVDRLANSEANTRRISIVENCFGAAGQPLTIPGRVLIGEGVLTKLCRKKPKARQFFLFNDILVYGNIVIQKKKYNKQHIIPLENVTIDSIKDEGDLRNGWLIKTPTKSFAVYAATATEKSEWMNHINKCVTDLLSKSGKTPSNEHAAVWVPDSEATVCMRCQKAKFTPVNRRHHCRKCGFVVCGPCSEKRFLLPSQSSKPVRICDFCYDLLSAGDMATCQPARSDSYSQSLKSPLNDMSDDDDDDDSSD

[4] = target: T4, Venus fused Phafin2 (pCXN2-Venus-Phafin2) (human) (UniProt Q9H8W4); assay: FRET or BRET; FRET in HeLa cells transfected with pCXN2-ECFP-Akt2 and pCXN2-Venus-Phafin2; non-treated, 10 µM rapamycin or HBSS
T4 sequence: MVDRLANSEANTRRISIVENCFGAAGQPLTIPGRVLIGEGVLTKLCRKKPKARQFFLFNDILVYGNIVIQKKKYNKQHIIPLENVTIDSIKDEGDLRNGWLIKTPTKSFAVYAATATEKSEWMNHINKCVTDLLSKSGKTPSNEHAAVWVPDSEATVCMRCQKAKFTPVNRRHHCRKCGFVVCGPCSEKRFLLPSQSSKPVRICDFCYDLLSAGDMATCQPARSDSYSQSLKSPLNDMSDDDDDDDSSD

[5] = target: T5, GST-wild type Phafin2 recombinant protein (human) (UniProt Q9H8W4); assay: pull-down; GST pull-down: recombinant active or unactive Akt1 incubated with GST-Phafin2 beads in 1% Triton buffer, 50 mM Tris HCl (pH 7.5), 150 mM NaCl, 5 min at 4°C; immunoblot with anti-Akt antibody; both purified
T5 sequence: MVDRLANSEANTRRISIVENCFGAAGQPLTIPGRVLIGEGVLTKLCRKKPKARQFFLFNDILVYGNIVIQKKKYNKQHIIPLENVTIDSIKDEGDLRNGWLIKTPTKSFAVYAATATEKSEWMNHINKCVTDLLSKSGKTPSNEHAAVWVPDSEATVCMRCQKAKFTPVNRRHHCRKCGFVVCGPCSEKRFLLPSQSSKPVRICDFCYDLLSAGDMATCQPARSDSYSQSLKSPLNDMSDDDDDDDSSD

[6] = target: human Akt2 bait (human Akt2/pAS2-1) (human) (UniProt P31751); assay: two-hybrid; yeast two-hybrid screen, Y190 cells transformed with the bait plasmid human Akt2/pAS2-1; β-gal positive clones

Molecule: C-terminal Venus fused to Akt2 (pCAGGS-VC-AKT2) (from UniProt P31751 1-481) (enzyme)
- binding [1]: binds

Molecule: HA-tagged Akt1 (from UniProt P31749 1-480) (enzyme)
- binding [2]: binds

Molecule: HA-tagged Akt3 (from UniProt Q9Y243 1-479) (enzyme)
- binding [2]: no binding

Molecule: HA-tagged Akt2 (from UniProt P31751 1-481) (enzyme)
- binding [2]: binds

Molecule: Endogenous Akt1 (HT1080 cells) (from UniProt P31749 1-480) (enzyme)
- binding [3]: binds

Molecule: ECFP fused Akt2 (pCXN2-ECFP-Akt2) (from UniProt P31751 1-481) (enzyme)
- binding [4]: binds

Molecule: Endogenous Akt2 (HT1080 cells) (from UniProt P31751 1-481) (enzyme)
- binding [3]: binds

Molecule: Recombinant "unactive" Akt1/PKBα (from UniProt P31749 1-480) (enzyme)
- binding [5]: binds

B1: Phafin2 (yeast two-hybrid clone, full length cDNA of human Phafin2) (protein, UniProt Q9H8W4 1-249)
chain: MVDRLANSEANTRRISIVENCFGAAGQPLTIPGRVLIGEGVLTKLCRKKPKARQFFLFNDILVYGNIVIQKKKYNKQHIIPLENVTIDSIKDEGDLRNGWLIKTPTKSFAVYAATATEKSEWMNHINKCVTDLLSKSGKTPSNEHAAVWVPDSEATVCMRCQKAKFTPVNRRHHCRKCGFVVCGPCSEKRFLLPSQSSKPVRICDFCYDLLSAGDMATCQPARSDSYSQSLKSPLNDMSDDDDDDDSSD
- binding [6]: binds

B2: HA-PDK1 (enzyme, UniProt O15530 1-556)
chain: MARTTSQLYDAVPIQSSVVLCSCPSPSMVRTQTESSTPPGIPGGSRQGPAMDGTAAEPRPGAGSLQHAQPPPQPRKKRPEDFKFGKILGEGSFSTVVLARELATSREYAIKILEKRHIIKENKVPYVTRERDVMSRLDHPFFVKLYFTFQDDEKLYFGLSYAKNGELLKYIRKIGSFDETCTRFYTAEIVSALEYLHGKGIIHRDLKPENILLNEDMHIQITDFGTAKVLSPESKQARANSFVGTAQYVSPELLTEKSACKSSDLWALGCIIYQLVAGLPPFRAGNEYLIFQKIIKLEYDFPEKFFPKARDLVEKLLVLDATKRLGCEEMEGYGPLKAHPFFESVTWENLHQQTPPKLTAYLPAMSEDDEDCYGNYDNLLSQFGCMQVSSSSSSHSLSASDTGLPQRSGSNIEQYIHDLDSNSFELDLQFSEDEKRLLLEKQAGGNPWHQFVENNLILKMGPVDKRKGLFARRRQLLLTEGPHLYYVDPVNKVLKGEIPWSQELRPEAKNFKTFFVHTPNRTYYLMDPSGNAHKWCRKIQEVWRQRYQSHPDAAVQ
- binding [2]: no binding
